Experimental findings from publication PMC5818251 are described below.

Amino acid sequences for entries named in this document (tags omitted).
UniProt P47941: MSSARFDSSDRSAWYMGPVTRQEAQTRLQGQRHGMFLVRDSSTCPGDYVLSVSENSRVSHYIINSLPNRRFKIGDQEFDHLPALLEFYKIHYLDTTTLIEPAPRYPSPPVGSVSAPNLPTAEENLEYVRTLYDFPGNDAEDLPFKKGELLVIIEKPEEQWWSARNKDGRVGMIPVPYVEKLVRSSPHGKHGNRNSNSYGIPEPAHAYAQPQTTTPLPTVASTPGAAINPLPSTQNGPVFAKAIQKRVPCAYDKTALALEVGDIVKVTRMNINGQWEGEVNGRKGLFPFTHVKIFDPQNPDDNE
UniProt Q60631: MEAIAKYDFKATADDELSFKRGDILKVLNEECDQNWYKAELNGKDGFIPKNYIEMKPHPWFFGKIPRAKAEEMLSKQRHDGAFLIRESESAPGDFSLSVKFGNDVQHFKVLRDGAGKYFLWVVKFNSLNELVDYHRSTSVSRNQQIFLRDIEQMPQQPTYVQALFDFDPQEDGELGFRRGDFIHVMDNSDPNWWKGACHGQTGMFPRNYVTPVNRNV

Results are given in words; binding and its absence hold for the method and conditions named. In cells and extracts the contact can be indirect. Some binding calls cover weakened binding; strength is not graded here.

In this assay the target is TAP-Crkl (Crkl protein conjugated to a tandem affinity purification tag) (UniProt P47941). The experiment in a line: co-IP; NIH-3T3 cells transfected with TAP-Crkl, serum depleted overnight, treated with recombinant human FGF2 (100 ng/ml, 5 min) or control; lysed in 25 mM Tris-HCl pH 7.4, 1 mM EDTA, 150 mM NaCl, 1% NP-40, 5% glycerol; TAP-Crkl captured on streptavidin resin, washed at 4°C; immunoblots for Frs2, Shp2 and Grb2. (In general: A western blot detects proteins with antibodies after separation by electrophoresis.)

Turning to Grb2 (from UniProt Q60631 1-217), the binding entry was “binds”.
